The record followed here is publication PMC12594589.

No constants are given. Whether binding was seen depends on the method and setting. Binding seen in cells or lysates may run through a third protein. A result given as binding can be weak or reduced; the word gives no strength.

This experiment concerns the target Flag-YBX3#2 (YBX3 truncation mutant #2, cold shock domain deleted). As to the kind of experiment: co-IP; co-IP of TTC36 with FLAG-tagged full-length or truncated YBX3 constructs (#1, #2, #3); cells not given.

B1: TTC36 (as used in the co-IP with YBX3 truncation mutants) (protein, UniProt A6NLP5 1-189)
chain: MGTPNDQAVLQAIFNPDTPFGDIVGLDLGEEAEKEEREEDEVFPQAQLEQSKALELQGVMAAEAGDLSTALERFGQAICLLPERASAYNNRAQARRLQGDVAGALEDLERAVELSGGRGRAARQSFVQRGLLARLQGRDDDARRDFERAARLGSPFARRQLVLLNPYAALCNRMLADMMGQLRRPRDSR
Regarding B1, the binding entry was “binds”.
